Data from patent EP1202992B1, “ASCIDIDEMIN DERIVATIVES AND THEIR THERAPEUTIC APPLICATIONS” (CEPHALON FRANCE, priority 1999, dated 2001).

Assay: Ratio tolerance / cytotoxic activity (DMT/CI50)
Details: for DMT/CI50: ratio of DMT and mean CI50 expressed as dimensionless numbers; for DMT/CI50*: ratio relative to a ratio of 1 for ascididémine

Compound: 2-bromoleptoclinidone [CRL 8269, reference compound]
- DMT/CI50: 0,33
- DMT/CI50*: 2

Compound: 5-(2-chloroéthyl)amino-9H-quino[4,3,2de][1,10] phénanthrolin-9-one [CRL 8423]
- DMT/CI50: 22,86
- DMT/CI50*: 114

Compound: 5-(diméthylamino-2-éthyl)amino-9H-quino[4,3,2de][1,10] phénanthrolin-9-one [CRL 8419]
- DMT/CI50: 0,67
- DMT/CI50*: 3,3

Compound: 5-bis(2-chloroéthyl)amino-9H-quino[4,3,2de][1,10] phénanthrolin-9-one [CRL 8422]
- DMT/CI50: 1,60
- DMT/CI50*: 8,3

Compound: 5-chloro-9H-quino [4,3,2-de] [1,10] phénantrolin-9-one [CRL 8301]
- DMT/CI50: 0,59
- DMT/CI50*: 3

Compound: 9-H-quino[4,3,2-de][1,10]phénanthrolin-9-one [CRL 8274, reference compound]
- DMT/CI50: 0,20
- DMT/CI50*: 1

Compound: O=C1c2cccnc2-c2nccc3c2c1nc1ccc(NCc2ccccc2)cc13 [CRL 8241, 5-(benzylamino)-9H-quino[4,3,2-de][1,10] phénanthrolin-9-one]
- DMT/CI50: 1,14
- DMT/CI50*: 6

Compound: O=C1c2nccc(Br)c2-c2nc3ccccc3c3ccnc1c23 [CRL 8248, 5-bromo-9H-quino[4,3,2-de] [1,10]phénantrolin-9-one]
- DMT/CI50: 2,00
- DMT/CI50*: 10

Compound: COc1ccc2nc3c4c(nccc4c2c1)-c1ncccc1C3=O [CRL 8297, 5-méthoxy-9H-quino[4,3,2-de][1,10]phénanthrolin-9-one]
- DMT/CI50: 1,78
- DMT/CI50*: 9

Compound: Cc1ccc2nc3c4c(nccc4c2c1)-c1ncccc1C3=O [CRL 8323, 5-méthyl-9H-quino [4,3,2-de][1,10] phénanthrolin-9-one]
- DMT/CI50: 0,33
- DMT/CI50*: 2

Compound: CN(C)c1ccc2nc3c4c(nccc4c2c1)-c1ncccc1C3=O [CRL 8325, 5-(diméthylamino)-9H-quino[4,3,2-de][1,10]phénanthrolin-9-one]
- DMT/CI50: 4,32
- DMT/CI50*: 22

Compound: Nc1ccnc2c1-c1nc3ccccc3c3ccnc(c13)C2=O [CRL 8347, 5-amino-9H-quino[4,3,2-de][1,10]phénanthtolin-9-one]
- DMT/CI50: 7,62
- DMT/CI50*: 38

Compound: COc1ccnc2c1C(=O)c1nc3ccc(Br)cc3c3ccnc-2c13 [CRL 8389, 5-bromo-10-méthoxy-9H-quino[4,3,2-de][1,10]phénanthrolin-9-one]
- DMT/CI50: 0,38
- DMT/CI50*: 2

Compound: CN(C)c1ccc2nc3c4c(nccc4c2c1)-c1ncccc1C3=O [CRL 8407, Chlorhydratede la 5-(diméthylamino)-9H-quino[4,3,2-de][1,10] phénanthrolin-9-one]
- DMT/CI50: 7,27
- DMT/CI50*: 36

Compound: O=C1c2cccnc2-c2nccc3c2c1nc1ccc(NCc2ccccc2)cc13 [CRL 8416, Chlorhydratede la 5-(benzylamino)-9H-quino[4,3,2-de][1,10] phénanthrolin-9-one]
- DMT/CI50: 2,00
- DMT/CI50*: 10

Compound: Chlorhydrate de la 5-(diméthylamino-2-éthyl)amino-9H-quino[4,3,2de][1,10] phénanthrolin-9-one [CRL 8418]
- DMT/CI50: 0,37
- DMT/CI50*: 2

Compound: Chlorhydrate de la 5-amino-9H-quino[4,3,2-de][1,10]phénanthrolin-9-one [CRL 8406]
- DMT/CI50: 2,67
- DMT/CI50*: 13
